Laboratory results: patent US10961180B2, “Branched trialkyl amine oxides” (Eastman Chemical Company, priority 2018, dated 2021)

Assays:
[1] = Stain removal in cold water, swatch brightness, simple laundry liquid; conditions: 12% LAE7 base formulation diluted to 0.06% surfactant; additives 0.05% active in wash solution; 20° C; 3 replicates
[2] = as above; conditions: 12% LAE7 base formulation diluted to 0.06% surfactant; additives 0.05% active in wash solution; 20° C; 3 replicates; remark: listed apart in the source
[3] = Standard Pre-Treater formula on lipstick stain; conditions: 6% surfactant in Standard PT formula, 0.2 ml, 5 min, then cold wash (20 C) in diluted Tide

Row | Compound | Stain removal estimated by brightness, avg L* [1] | Stain removal estimated by brightness, avg L* [2] | L* [3] | deltaE [3]
1 | CCCCC(CC)CC(C)C[N+](C)(C)[O-] (centres unmarked) [Example 43, 4-ethyl-N,N-2-trimethyloctan-1-amine oxide] | 76.3 | 72.7 | – | –
2 | CCCCCCCCCCCC[N+](C)(C)[O-] [LAO, N,N-dimethyl laurylamine oxide, reference compound] | 74.8 | 72.8 | – | –
3 | Alkylpolyglucoside [APG] | – | – | 78.0 | 18.9
4 | Linear alkylbenzene sulfonate [LABS] | – | – | 78.4 | 19.4
